Measured values reported in the supplement of paper PMC11006884.
The entries are a selection whose mix differs from that of the whole data set.

Amino acid sequences for entries named in this document (tags omitted). A change or cut given only in a name is not applied to a line headed by its entry.
UniProt Q9BTT6: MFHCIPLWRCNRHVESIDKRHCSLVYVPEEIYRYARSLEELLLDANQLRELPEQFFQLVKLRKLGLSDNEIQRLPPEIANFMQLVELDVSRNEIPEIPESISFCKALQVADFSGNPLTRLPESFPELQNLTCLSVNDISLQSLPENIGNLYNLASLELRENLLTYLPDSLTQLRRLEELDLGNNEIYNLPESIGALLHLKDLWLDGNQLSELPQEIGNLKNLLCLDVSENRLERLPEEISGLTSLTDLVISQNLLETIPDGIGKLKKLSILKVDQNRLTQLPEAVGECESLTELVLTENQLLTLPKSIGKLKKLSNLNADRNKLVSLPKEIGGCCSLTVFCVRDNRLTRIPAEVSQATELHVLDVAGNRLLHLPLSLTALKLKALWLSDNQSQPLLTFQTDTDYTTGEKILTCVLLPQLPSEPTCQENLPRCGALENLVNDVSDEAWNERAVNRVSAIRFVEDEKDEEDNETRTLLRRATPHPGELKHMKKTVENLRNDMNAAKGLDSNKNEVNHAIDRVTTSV
UniProt Q9H1K1: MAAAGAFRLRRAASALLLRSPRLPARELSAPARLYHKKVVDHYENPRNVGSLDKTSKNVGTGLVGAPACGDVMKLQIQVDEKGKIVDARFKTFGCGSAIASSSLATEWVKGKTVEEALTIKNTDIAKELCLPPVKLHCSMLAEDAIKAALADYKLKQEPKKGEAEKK
UniProt Q9BXP5: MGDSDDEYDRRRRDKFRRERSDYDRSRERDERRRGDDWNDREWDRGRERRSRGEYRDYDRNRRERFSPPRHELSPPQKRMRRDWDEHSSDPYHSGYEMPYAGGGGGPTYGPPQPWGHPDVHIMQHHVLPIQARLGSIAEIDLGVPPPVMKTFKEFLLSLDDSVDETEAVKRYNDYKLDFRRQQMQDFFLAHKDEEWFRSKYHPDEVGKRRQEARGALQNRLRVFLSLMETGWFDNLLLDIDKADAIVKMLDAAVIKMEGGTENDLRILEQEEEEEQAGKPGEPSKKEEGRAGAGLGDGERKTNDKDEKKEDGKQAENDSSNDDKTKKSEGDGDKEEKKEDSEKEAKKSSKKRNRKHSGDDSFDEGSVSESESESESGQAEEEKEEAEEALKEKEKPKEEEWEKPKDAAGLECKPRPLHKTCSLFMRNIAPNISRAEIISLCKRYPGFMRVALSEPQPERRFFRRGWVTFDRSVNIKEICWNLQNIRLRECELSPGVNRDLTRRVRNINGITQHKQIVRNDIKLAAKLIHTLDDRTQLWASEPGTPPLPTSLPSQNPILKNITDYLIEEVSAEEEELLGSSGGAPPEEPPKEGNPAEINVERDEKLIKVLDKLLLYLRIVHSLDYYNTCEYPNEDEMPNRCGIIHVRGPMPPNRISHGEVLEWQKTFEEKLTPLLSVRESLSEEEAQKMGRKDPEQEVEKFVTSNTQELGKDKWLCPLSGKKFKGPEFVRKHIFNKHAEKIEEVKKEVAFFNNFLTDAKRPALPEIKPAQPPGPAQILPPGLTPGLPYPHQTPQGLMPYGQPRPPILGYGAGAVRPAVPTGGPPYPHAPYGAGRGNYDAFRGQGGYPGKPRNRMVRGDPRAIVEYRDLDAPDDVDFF
UniProt Q9BVP2: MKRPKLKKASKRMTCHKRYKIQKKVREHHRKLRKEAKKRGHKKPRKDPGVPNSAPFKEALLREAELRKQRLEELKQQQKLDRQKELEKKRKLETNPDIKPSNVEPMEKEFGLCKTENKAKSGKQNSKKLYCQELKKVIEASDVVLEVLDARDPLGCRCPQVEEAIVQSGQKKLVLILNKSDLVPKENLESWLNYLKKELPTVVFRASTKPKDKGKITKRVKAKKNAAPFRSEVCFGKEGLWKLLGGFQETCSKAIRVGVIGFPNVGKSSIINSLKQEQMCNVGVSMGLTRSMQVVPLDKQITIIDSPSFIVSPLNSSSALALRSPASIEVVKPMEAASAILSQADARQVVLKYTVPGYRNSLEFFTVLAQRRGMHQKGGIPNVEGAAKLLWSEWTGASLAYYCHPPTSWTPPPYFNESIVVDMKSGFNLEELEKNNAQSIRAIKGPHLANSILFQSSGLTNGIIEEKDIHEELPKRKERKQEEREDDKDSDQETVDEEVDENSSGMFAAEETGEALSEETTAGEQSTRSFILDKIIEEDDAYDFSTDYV
UniProt Q9BUF5, whole entry, looked up: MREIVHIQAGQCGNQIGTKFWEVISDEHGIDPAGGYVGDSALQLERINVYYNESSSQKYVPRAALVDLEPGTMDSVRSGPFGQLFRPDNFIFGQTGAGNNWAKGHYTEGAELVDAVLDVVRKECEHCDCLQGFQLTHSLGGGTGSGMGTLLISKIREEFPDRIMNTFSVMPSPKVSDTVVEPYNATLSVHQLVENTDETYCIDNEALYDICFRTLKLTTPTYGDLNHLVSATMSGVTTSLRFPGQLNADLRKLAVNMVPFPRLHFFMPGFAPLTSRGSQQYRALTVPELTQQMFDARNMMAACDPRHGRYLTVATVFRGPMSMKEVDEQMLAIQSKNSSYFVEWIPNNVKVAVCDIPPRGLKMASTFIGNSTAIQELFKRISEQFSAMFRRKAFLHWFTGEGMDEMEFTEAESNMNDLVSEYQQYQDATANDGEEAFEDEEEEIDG
UniProt Q9BXJ9: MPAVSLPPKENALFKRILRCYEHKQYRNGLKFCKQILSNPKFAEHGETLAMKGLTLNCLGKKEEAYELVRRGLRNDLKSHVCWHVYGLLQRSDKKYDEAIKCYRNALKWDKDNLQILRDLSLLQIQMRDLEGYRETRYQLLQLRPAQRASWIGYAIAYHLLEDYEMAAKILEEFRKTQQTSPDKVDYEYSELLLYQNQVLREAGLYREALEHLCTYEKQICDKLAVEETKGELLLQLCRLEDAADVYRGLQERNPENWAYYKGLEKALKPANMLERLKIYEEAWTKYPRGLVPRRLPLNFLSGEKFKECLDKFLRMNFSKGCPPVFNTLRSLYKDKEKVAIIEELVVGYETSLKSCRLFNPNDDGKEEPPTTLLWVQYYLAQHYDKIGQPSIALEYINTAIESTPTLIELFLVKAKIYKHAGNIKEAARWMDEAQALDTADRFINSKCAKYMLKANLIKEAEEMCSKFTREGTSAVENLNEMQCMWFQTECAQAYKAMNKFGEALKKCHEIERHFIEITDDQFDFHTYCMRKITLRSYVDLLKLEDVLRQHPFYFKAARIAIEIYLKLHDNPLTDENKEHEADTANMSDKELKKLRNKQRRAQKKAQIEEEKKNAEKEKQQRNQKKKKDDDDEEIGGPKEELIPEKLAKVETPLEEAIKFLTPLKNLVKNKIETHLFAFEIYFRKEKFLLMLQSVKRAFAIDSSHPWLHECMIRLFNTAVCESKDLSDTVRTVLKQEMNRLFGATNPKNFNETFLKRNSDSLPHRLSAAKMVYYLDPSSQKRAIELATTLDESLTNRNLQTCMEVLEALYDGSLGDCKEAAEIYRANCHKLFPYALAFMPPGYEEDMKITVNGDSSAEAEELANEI
UniProt Q9H0C8: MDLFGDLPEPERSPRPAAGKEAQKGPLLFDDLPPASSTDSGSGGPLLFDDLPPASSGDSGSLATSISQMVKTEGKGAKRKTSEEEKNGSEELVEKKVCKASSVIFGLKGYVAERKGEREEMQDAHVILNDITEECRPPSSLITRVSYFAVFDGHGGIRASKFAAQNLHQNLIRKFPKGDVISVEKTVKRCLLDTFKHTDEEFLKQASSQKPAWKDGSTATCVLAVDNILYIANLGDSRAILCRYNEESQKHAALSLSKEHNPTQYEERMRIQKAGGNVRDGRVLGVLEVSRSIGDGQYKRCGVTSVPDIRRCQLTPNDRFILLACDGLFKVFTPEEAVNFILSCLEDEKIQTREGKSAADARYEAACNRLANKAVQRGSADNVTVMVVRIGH
UniProt Q9GZN1, whole entry, looked up: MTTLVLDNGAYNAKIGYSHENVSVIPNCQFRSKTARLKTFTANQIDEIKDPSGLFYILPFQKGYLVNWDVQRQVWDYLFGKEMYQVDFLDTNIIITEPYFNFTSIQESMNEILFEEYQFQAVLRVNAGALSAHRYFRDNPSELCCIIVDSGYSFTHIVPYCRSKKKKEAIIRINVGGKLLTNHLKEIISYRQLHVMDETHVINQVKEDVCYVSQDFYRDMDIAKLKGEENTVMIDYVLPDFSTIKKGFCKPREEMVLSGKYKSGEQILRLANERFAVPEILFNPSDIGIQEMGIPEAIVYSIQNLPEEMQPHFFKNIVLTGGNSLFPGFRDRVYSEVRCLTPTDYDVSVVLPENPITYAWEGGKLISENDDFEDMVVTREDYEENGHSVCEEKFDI
UniProt Q9BYB4: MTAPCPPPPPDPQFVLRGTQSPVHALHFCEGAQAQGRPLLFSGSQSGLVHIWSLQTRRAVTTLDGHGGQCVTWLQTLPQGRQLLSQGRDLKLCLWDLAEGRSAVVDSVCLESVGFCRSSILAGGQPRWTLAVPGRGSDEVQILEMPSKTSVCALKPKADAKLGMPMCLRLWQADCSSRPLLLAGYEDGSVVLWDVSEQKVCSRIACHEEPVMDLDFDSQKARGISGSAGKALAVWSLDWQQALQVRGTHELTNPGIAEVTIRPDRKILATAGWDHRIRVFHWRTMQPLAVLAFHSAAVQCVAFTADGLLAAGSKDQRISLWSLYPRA
UniProt Q9BWF3: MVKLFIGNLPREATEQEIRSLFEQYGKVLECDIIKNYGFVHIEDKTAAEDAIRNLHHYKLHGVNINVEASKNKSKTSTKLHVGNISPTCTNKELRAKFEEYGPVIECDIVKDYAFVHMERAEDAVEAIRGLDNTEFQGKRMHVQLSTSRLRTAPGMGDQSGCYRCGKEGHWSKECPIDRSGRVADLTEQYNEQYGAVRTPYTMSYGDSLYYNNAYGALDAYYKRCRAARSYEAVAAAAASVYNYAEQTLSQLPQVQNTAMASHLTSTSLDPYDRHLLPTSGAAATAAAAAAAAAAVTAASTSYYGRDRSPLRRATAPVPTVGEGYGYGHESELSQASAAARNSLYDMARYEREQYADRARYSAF
UniProt Q9BWW4: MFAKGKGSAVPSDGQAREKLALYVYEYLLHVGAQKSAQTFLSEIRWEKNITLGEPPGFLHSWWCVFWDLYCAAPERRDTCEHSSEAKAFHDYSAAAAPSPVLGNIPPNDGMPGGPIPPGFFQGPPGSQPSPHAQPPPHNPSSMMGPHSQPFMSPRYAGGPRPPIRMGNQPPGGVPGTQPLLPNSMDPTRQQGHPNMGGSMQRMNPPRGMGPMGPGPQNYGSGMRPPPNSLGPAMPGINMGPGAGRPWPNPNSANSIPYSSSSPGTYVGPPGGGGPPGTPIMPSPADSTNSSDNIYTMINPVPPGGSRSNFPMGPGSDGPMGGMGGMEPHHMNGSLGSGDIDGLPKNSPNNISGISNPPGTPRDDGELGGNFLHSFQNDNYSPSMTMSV
UniProt Q9BVL2: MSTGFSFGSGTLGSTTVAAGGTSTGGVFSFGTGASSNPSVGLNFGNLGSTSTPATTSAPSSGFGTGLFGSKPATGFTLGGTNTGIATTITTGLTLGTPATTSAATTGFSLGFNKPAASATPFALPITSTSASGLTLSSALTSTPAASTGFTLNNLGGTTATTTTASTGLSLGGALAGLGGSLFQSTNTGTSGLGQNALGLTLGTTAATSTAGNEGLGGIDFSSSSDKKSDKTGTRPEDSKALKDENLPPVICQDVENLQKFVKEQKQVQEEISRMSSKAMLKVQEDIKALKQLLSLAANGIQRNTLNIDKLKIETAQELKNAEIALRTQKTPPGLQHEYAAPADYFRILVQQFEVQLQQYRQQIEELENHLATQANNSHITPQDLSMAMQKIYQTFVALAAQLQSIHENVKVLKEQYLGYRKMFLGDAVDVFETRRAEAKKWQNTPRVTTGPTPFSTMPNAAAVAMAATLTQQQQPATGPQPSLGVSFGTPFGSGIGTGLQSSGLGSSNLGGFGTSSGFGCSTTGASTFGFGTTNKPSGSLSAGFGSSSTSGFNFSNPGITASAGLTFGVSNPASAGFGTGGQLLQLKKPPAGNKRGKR
UniProt Q9BZL1: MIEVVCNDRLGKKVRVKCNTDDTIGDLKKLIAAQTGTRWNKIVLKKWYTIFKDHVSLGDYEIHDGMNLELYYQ
UniProt Q9H1C4: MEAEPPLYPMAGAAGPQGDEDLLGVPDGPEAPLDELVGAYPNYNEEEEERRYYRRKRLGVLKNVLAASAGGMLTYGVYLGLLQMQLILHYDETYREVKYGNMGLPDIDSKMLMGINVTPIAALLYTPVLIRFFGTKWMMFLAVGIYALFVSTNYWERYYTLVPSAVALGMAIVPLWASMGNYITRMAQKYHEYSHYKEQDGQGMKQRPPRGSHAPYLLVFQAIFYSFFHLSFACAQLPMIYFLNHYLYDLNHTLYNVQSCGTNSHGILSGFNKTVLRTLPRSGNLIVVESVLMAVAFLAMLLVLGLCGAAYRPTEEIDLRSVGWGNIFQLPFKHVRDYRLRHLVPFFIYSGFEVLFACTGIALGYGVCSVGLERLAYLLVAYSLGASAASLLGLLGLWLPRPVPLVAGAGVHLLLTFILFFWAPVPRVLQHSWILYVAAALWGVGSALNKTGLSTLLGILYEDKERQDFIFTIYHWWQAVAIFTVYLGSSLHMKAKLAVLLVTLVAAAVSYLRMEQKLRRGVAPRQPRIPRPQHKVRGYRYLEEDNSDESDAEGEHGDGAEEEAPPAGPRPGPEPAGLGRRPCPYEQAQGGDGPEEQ

compound: COC(=O)C#Cc1ccccc1 [methyl 3-phenylpropiolate]; assay: log2 ratio of iodoacetamide-alkyne labeling of the cysteine site, DMSO over compound (competition); higher = stronger covalent engagement of the cysteine by the compound, active = 1 or more; conditions: 500 µM; treatment time 1 h; system: HEK293T cell lysate
In short: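 After 1 h at ambient temperature with vehicle or electrophile (500 µM), HEK293T lysate (2 mg/mL) was labelled for 1 h with iodoacetamide alkyne and clicked to sCIP-TMT reagents. Pooled samples were trypsin-digested overnight at 37 °C, streptavidin-enriched, acid-eluted and analysed by Orbitrap Eclipse LC-MS/MS with FAIMS, then quantified in FragPipe over three replicates with duplicate channels. A cysteine's log2 competition ratio is its mean control-channel over mean compound-channel reporter intensity. Cysteines quantified in only one replicate were not included.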

Target	log2 ratio of iodoacetamide-alkyne labeling
EIF2A C306 (UniProt Q9BY44)	inactive: 0.165
PUS7L C267 (UniProt Q9H0K6)	inactive: 0.462
UniProt Q9BTT6_C22	inactive: 0.382
UniProt Q9BQI3_C494	inactive: 0.117
SLC4A1AP C336 (UniProt Q9BWU0)	inactive: 0.256
UBXN6 C210 (UniProt Q9BZV1)	inactive: -0.245
ISCU C69 (UniProt Q9H1K1)	inactive: 0.344
SETD2 C714 (UniProt Q9BYW2)	inactive: 0.797
ACAT2 C360 (UniProt Q9BWD1)	inactive: -0.0247
UniProt Q9BXP5_C412	inactive: 0.176
UniProt Q9GZT3_C48	inactive: -0.0934
GNL3 C131 (UniProt Q9BVP2)	inactive: 0.225
SETD2 C1086 (UniProt Q9BYW2)	inactive: 0.661
TUBB6 C124 (UniProt Q9BUF5)	inactive: 0.874
DDX24 C467 (UniProt Q9GZR7)	inactive: 0.384
UBE2O C244 (UniProt Q9C0C9)	inactive: 0.18
UniProt Q9BXJ9_C322	inactive: -0.0777
ILKAP C221 (UniProt Q9H0C8)	inactive: 0.46
SLK C993 (UniProt Q9H2G2)	inactive: -0.0376

Taken from above.
log2 ratio of iodoacetamide-alkyne labeling with UBXN6 C210 (UniProt Q9BZV1) reads inactive: -0.245
log2 ratio of iodoacetamide-alkyne labeling with ILKAP C221 (UniProt Q9H0C8) reads inactive: 0.46

(further entries)

Target	log2 ratio of iodoacetamide-alkyne labeling
ACTR6 C28 (UniProt Q9GZN1)	inactive: 0.277
GNB1L C109 (UniProt Q9BYB4)	inactive: 0.259
UniProt Q9BWC9_C250	inactive: 0.457
RACGAP1 C419 (UniProt Q9H0H5)	inactive: 0.303
RBM4 C107 (UniProt Q9BWF3)	inactive: -0.185
RBM42 C385 (UniProt Q9BTD8)	inactive: 0.043
UniProt Q9BWW4_C80	inactive: 0.318
ASPSCR1 C225 (UniProt Q9BZE9)	active: 1.02
XRN2 C62 (UniProt Q9H0D6)	inactive: -0.1
KIFC1 C557 (UniProt Q9BW19)	inactive: 0.0199
SLK C358 (UniProt Q9H2G2)	inactive: 0.34
DDX24 C49 (UniProt Q9GZR7)	inactive: 0.148
UniProt Q9BVL2_C252	inactive: -0.134
TNKS1BP1 C1443 (UniProt Q9C0C2)	inactive: 0.355
UniProt Q9BSH4_C256	inactive: -0.207
UniProt Q9BZL1_C6	inactive: 0.0596
ACAT2 C65 (UniProt Q9BWD1)	inactive: -0.126
UNC93B1 C583 (UniProt Q9H1C4)	active: 2.06
